Earlier results as cited in PMC4482062 (Nucleic Acids Research, 2015).

Conditions: cited from earlier work

C[S+](CC[C@H](N)C(=O)[O-])C[C@H]1O[C@@H](n2cnc3c(N)ncnc32)[C@H](O)[C@@H]1O (some centres unmarked) [SAM, reference compound]
cellular concentration in E. coli: 200 µM and 180 µM
physiological concentration in E. coli: 0.2 mM

Several values for one entry are separate records, joined by “and”; a condition that tells them apart may be missing. Equal values may be shown once.
